# These are yes or no findings as the source states them, for the method shown. Some results given as binding are weak or reduced against the parent protein; the word gives no strength.
# Chains of the proteins cited; added tags and fusions are not shown. Residues count along the entry.
# UniProt Q92956, residues 39-200: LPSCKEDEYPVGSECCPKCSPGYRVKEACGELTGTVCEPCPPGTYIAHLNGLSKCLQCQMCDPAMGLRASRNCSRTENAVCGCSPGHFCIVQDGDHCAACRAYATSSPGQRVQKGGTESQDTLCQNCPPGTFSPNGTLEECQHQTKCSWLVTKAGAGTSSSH
# Target: HveA(200t) (UniProt Q92956)
# Assay: ELISA, HveA immobilized, constant LT-alpha with various amounts of gD, AG9 detection
binder,measurement,value
"lymphotoxin-alpha (LT-alpha) (ligand, UniProt P01374 35-205, looked up) LPGVGLTPSAAQTARQHPKMHLAHSTLKPAAHLIGDPSKQNSLLWRANTDRAFLQDGFSLSNNSLLVPTSGIYFVYSQVVFSGKAYSPKATSSPLYLAHEVQLFSSQYPFHVPLLSSQKMVYPGLQEPWLHSMYHGAAFQLTQGDQLSTHTDGIPHLVLSPSTVFFGAFAL",binding,binds
